According to PubChem BioAssay AID540256 (National Center for Advancing Translational Sciences (NCATS), 2011):
In all, about 300,000 compounds went through this assay and about 3,700 (1.2%) were called active. This list was built around the results that the source calls inconclusive (neither active nor inactive); the mix of calls is not that of the screen. Calls come from the whole dose curve; tested in HEK293 cells. Potencies of inconclusive entries are doubtful fits and often do not repeat.

Test: qHTS for Inhibitors of binding or entry into cells for Lassa Virus; note: nearly all actives have a fitted effect of over 50% in size
Conditions: Lassa virus pseudotype entry inhibition, cell reporter; activity change, negative = inhibition: at 37.9 µM (top of the series) unless noted
% is set by controls: 0 for no effect and ±100 for the full control effect; potency is the fitted concentration of half-maximal effect.

| SMILES | Potency | activity change, negative = inhibition |
| --- | --- | --- |
| CN(C)CCCN(C(=O)COc1ccccc1)c1nc2cc3c(cc2s1)OCO3 | inconclusive: 3.55 µM [activator, partial curve, poor fit] |  |
| COc1cccc2c1C(=O)c1c(O)c3c(c(O)c1C2=O)C[C@@](O)(C(=O)CO)C[C@@H]3O[C@H]1C[C@H](N)[C@H](OC2CCCCO2)[C@H](C)O1 (some centres not stated) | active: 1.12 µM |  |
| CC1(c2cccc3ccccc23)OC(=O)c2ccccc21 (configuration not stated) | inconclusive: 25.1 µM [inhibitor, single point] |  |
| Cc1cccc(Cn2nc(C(C)(C)C)cc2C(=O)Nc2ccc(F)cc2)c1 | inconclusive: 0.631 µM [inhibitor, full curve, poor fit] |  |
| CC1CCCN(c2nc3c(c(=O)n(C)c(=O)n3C)n2CCSc2nc3ccccc3o2)C1 (configuration not stated) | inconclusive: 10.3 µM [inhibitor, partial curve] |  |
| O=C(CSc1nccn1Cc1ccc(F)cc1)Nc1nc2ccccc2s1 | inconclusive: 1.26 µM [activator, full curve, poor fit] |  |
| CN(C)CC/C=C1\c2ccccc2Sc2ccc(Cl)cc21 | inconclusive: 20.6 µM [inhibitor, single point] |  |
| COc1cc(/C=N/NC(=S)Nc2cccc(Cl)c2C)ccc1OCC(=O)N1CC(C)OC(C)C1 (configuration not stated) | inconclusive: 35.5 µM [inhibitor, single point] |  |
| COc1ccc(C(CNC(=S)NCc2ccccc2)N2CCCC2)cc1 (configuration not stated) | inconclusive: 7.94 µM [inhibitor, partial curve, poor fit] |  |
| COC(=O)C1=CN(c2ccc(F)cc2)C=C(C(=O)OC)C1c1cccc([N+](=O)[O-])c1 | inconclusive: 14.1 µM [inhibitor, partial curve, poor fit] |  |
| CCN(CC)c1cc(C)c2cc(NC(=O)/C=C/c3cc(OC)c(OC)c(OC)c3)ccc2n1 | inconclusive: 12.6 µM [inhibitor, single point] |  |
| CCc1ccc(CNC(=O)CCc2c(C)nn(-c3ccc(N4CCCC4)nn3)c2C)cc1 |  | inactive: 8.58% [at 46.1 µM] |
| O=C(Cn1nnnc1-c1ccccc1F)Nc1ccc(OC(F)(F)F)cc1 |  | inactive: -13.2% [at 46.1 µM] |
| COc1cccc(-c2nn(-c3ccccc3)cc2C(=O)Nc2nccs2)c1 |  | inactive: -24.6% |
| Cc1cc(C)nc(NC(=O)/C=C/c2ccc3c(c2)OCO3)c1 | inconclusive: 6.31 µM [inhibitor, single point] |  |
| COC(=O)N[C@H](C(C(=O)OC)=C(C)NCc1ccccc1)c1ccccc1 | inconclusive: 0.668 µM [inhibitor, full curve] |  |
| Fc1ccc(-c2csc(NC3=NCCC3)n2)cc1 |  | inactive: -14.7% [at 46.1 µM] |
| CCC(=O)OCOc1ccc(/C=C2/CCC(CN(C)C)C2=O)cc1 (configuration not stated) | inconclusive: 25.1 µM [inhibitor, single point] |  |
| CC12CCC(=O)N1C(C(=O)Nc1cc(Cl)ccc1N1CCCC1)CS2 (configuration not stated) |  | inactive: 8.68% |
| O=C1C2C3C=CC(C3)C2C(=O)N1CCCCCCN1C(=O)C2C3C=CC(C3)C2C1=O (configuration not stated) | inconclusive: 22.4 µM [inhibitor, single point] |  |
| CC(=O)c1ccc(NC(=O)/C(Cl)=C/c2ccccc2)cc1 | inconclusive: 4.47 µM [activator, full curve] |  |

Part of the list above in another layout:
SMILES,Potency,"activity change, negative = inhibition"
CCC(=O)OCOc1ccc(/C=C2/CCC(CN(C)C)C2=O)cc1 (configuration not stated),"inconclusive: 25.1 µM [inhibitor, single point]",
CC12CCC(=O)N1C(C(=O)Nc1cc(Cl)ccc1N1CCCC1)CS2 (configuration not stated),,inactive: 8.68%

Further entries:

| SMILES | Potency | activity change, negative = inhibition |
| --- | --- | --- |
| O=C(Nc1ccccc1N1CCCCC1)C1CCN(C(=O)c2ccc(Cl)cc2)CC1 |  | inactive: -28.4% |
| O=C(/C=C/c1cccc(F)c1)Nc1ccc(S(=O)(=O)N2CCOCC2)cc1 |  | inactive: 17.6% |
| OC(CNc1nc(-c2cccnc2)nc2ccccc12)c1ccccc1 (configuration not stated) | inconclusive: 12.6 µM [inhibitor, single point] |  |
| Cc1ccc(-c2noc(CCC(=O)Nc3ccc4c(c3)OCO4)n2)cc1 |  | inactive: 26.1% |
| CC1CCCCN1S(=O)(=O)c1ccc(NC(=O)c2ccco2)cc1 (configuration not stated) | inconclusive: 16.4 µM [inhibitor, single point] |  |
| O=C(N/C(=C\c1ccc(Br)cc1)C(=O)N1CCCC1)c1ccccc1F | inconclusive: 1.26 µM [inhibitor, single point] |  |
| Cc1ccc(C)c(-c2nnc(OCC(=O)Nc3cc(C)on3)c3ccccc23)c1 | inconclusive: 25.1 µM [inhibitor, single point] |  |
| COc1ccccc1Nc1sc(C(=O)c2ccc(F)cc2)c(N)c1S(=O)(=O)c1ccc(C)cc1 | inconclusive: 5.62 µM [inhibitor, partial curve, poor fit] |  |
| O=C(O)CCCC(=O)N1N=C(c2c(-c3ccccc3)c3cc(Cl)ccc3[nH]c2=O)CC1c1cccs1 (configuration not stated) |  | inactive: 13.8% |
| CCN(CC)S(=O)(=O)c1cccc(NC(=O)c2cc3ccccc3o2)c1 | inconclusive: 1.46 µM [activator, full curve, poor fit] |  |
| COc1cccc(/C=C/c2nc(C#N)c(N3CCC(C(N)=O)CC3)o2)c1 | inconclusive: 3.16 µM [inhibitor, partial curve, poor fit] |  |
| CNC(=O)CCc1nc(-c2ccc(C(C)(C)C)cc2)no1 | inconclusive: 6.31 µM [inhibitor, full curve] |  |
| CN1CCN(S(=O)(=O)c2ccc(NC(=O)c3ccc([N+](=O)[O-])cc3)cc2)CC1 |  | inactive: 28.9% [at 46.1 µM] |
| COc1cccc(OCCNC(=O)c2cc(OC)c(OC)c(OC)c2)c1 | inconclusive: 25.1 µM [inhibitor, partial curve, poor fit] |  |
| COc1ccc(-n2nc(C(=O)N3CCCCC3C)c3c4ccccc4n(C)c3c2=O)cc1Cl (configuration not stated) |  | inactive: 18.2% [at 46.1 µM] |
| CC(=O)Nc1ccc(Nc2cc(C)nc3c(-c4ccccc4)cnn23)cc1 | inconclusive: 18.4 µM [inhibitor, single point] |  |
| Cc1cc2c(cc1S(=O)(=O)Nc1cccc(C#N)c1)OCC(=O)N2 |  | inactive: 14.2% [at 46.1 µM] |
| N#CC(C(=O)OC1CCCCC1)c1nc2ccccc2nc1N1CCOCC1 (configuration not stated) |  | inactive: -10% |
| CN(C)CCCC1Sc2ccccc2Sc2ccccc21 (configuration not stated) | inconclusive: 5.62 µM [inhibitor, single point] |  |
| COP(=O)(C#Cc1ccccc1)C(O)c1ccc(Br)cc1 (configuration not stated) | inconclusive: 6.31 µM [inhibitor, single point] |  |
| CCC(=O)c1ccc(/C=C/c2nc3ccccc3n2C)o1 | inconclusive: 12.6 µM [inhibitor, single point] |  |
